In experiment [1] the target is T1, protein A (PrA)-tagged Cbp80 (S. cerevisiae) (UniProt P34160).
T1 sequence: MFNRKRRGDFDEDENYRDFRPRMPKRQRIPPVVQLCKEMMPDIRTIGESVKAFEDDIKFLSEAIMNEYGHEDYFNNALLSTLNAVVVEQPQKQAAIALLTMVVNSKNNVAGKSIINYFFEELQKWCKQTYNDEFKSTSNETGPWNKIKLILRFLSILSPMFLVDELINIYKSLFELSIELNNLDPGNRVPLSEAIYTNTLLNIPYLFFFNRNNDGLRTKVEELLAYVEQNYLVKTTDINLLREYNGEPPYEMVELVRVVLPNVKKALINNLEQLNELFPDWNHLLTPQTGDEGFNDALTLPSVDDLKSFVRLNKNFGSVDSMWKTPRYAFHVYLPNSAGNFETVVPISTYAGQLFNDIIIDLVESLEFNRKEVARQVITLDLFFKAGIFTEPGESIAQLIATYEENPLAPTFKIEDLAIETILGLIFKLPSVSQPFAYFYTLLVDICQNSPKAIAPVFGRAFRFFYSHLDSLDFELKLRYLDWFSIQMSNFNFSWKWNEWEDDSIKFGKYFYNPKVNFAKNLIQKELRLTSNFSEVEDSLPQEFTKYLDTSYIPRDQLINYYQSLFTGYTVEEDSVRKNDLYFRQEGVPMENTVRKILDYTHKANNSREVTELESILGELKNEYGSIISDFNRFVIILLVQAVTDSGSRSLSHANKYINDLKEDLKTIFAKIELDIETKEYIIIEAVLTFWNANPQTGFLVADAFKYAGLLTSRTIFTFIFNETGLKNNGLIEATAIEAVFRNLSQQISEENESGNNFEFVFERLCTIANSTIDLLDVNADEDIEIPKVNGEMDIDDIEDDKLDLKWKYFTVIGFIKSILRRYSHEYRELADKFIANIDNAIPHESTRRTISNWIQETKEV
Briefly: pull-down; mRNP-SiMPull: lysate of cryo-ground yeast cross-linked with 0.2% formaldehyde, PrA-tagged bait pulled down on rabbit IgG Dynabeads at 8°C for 10 min (mTBT16 buffer: 20 mM HEPES-KOH pH 7.4, 12.5 mM KOAc, 2 mM MgCl2, 0.5% Triton X-100, 0.1% Tween 20), eluted by HRV3C protease, captured on a slide by mNG, HA or Yra1 antibody, TIRF imaging; spot counts and photobleaching steps, no-PrA control subtracted (Sub2-mNG: capture via Cbp20-SNAPf-3HA with HA antibody).

Experiment [2] concerns the target T2, Nop56-PrA (S. cerevisiae) (UniProt Q12460).
T2 sequence: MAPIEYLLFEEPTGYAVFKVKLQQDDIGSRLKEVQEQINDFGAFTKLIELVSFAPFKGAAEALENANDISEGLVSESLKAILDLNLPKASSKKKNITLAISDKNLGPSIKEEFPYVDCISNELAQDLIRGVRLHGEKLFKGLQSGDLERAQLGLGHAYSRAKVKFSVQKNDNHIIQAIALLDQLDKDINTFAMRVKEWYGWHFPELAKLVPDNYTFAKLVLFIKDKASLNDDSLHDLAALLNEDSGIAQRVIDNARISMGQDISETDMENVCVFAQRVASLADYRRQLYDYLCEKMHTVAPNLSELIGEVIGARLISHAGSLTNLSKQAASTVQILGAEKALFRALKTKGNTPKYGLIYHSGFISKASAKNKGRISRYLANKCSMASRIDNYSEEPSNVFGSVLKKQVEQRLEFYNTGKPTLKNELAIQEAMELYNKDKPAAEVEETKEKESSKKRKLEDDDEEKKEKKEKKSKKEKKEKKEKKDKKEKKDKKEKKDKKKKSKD
The experiment is described as above.

The target of experiment [3] is T3, Mex67, mNG-tagged (S. cerevisiae) (UniProt Q99257).
T3 sequence: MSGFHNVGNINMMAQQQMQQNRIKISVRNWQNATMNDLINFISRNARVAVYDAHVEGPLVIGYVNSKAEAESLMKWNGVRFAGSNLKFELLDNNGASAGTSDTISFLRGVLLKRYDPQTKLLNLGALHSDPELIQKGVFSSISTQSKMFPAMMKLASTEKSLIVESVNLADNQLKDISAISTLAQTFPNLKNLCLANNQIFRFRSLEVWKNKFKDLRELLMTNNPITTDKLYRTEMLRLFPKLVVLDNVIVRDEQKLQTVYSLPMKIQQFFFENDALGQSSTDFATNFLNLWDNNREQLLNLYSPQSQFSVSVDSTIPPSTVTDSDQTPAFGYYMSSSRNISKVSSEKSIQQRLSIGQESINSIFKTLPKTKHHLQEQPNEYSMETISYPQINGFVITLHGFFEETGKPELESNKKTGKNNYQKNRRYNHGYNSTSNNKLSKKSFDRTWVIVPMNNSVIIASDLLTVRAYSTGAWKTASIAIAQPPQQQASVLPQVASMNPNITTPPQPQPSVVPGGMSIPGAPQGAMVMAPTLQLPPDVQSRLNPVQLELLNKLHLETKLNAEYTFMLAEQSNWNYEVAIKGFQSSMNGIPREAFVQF
The experiment in a line: pull-down; mRNP-SiMPull with Cbp80-PrA: Mtr2 in Mex67-bound spots (Figure S5F); tags and capture not given.

No constants are given. Whether binding was seen depends on the method and setting. Binding seen in cells or lysates may run through a third protein. Some entries that bind do so weakly or less than the wild type. For some assays here: Where a sequence is shown, tags or fusion partners need not be part of it.

B1: Cbp20-mNG (protein, UniProt Q08920 1-208)
chain: MSLEEFDEVKYDHSTKRLDTPSRYLLRKARRNPNGLQELRESMKSSTIYVGNLSFYTSEEQIYELFSKCGTIKRIIMGLDRFKFTPCGFCFIIYSCPDEALNALKYLSDTKLDEKTITIDLDPGFEDGRQFGRGKSGGQVSDELRFDFDASRGGFAIPFAERVGVPHSRFDNSSSQSNTNNYIPPPDAMGTFRPGFDEEREDDNYVPQ
As for B1, the binding result in experiment [1] is “binds”.

B2: Cbp20-SNAPf-3HA (protein, UniProt Q08920 1-208)
chain: MSLEEFDEVKYDHSTKRLDTPSRYLLRKARRNPNGLQELRESMKSSTIYVGNLSFYTSEEQIYELFSKCGTIKRIIMGLDRFKFTPCGFCFIIYSCPDEALNALKYLSDTKLDEKTITIDLDPGFEDGRQFGRGKSGGQVSDELRFDFDASRGGFAIPFAERVGVPHSRFDNSSSQSNTNNYIPPPDAMGTFRPGFDEEREDDNYVPQ
modifications: SNAP-Surface 649 dye on the SNAPf tag (partially labeled)
For the molecule B2, in experiment [1], the binding entry is “binds”.

B3: mNG-Snu13 (protein, UniProt P39990 1-126)
chain: MSAPNPKAFPLADAALTQQILDVVQQAANLRQLKKGANEATKTLNRGISEFIIMAADCEPIEILLHLPLLCEDKNVPYVFVPSRVALGRACGVSRPVIAASITTNDASAIKTQIYAVKDKIETLLI
For B3, the binding result in experiment [2] is on record as “binds”.

B4: Nop58-mNG (protein, UniProt Q12499 1-511)
chain: MAYVLTETSAGYALLKASDKKIYKSSSLIQDLDSSDKVLKEFKIAAFSKFNSAANALEEANSIIEGKVSSQLEKLLEEIKKDKKSTLIVSETKLANAINKLGLNFNVVSDAVTLDIYRAIKEYLPELLPGMSDNDLSKMSLGLAHSIGRHKLKFSADKVDVMIIQAIALLDDLDKELNTYAMRCKEWYGWHFPELAKIVTDSVAYARIILTMGIRSKASETDLSEILPEEIEERVKTAAEVSMGTEITQTDLDNINALAEQIVEFAAYREQLSNYLSARMKAIAPNLTQLVGELVGARLIAHSGSLISLAKSPASTIQILGAEKALFRALKTKHDTPKYGLLYHASLVGQATGKNKGKIARVLAAKAAVSLRYDALAEDRDDSGDIGLESRAKVENRLSQLEGRDLRTTPKVVREAKKVEMTEARAYNADADTAKAASDSESDSDDEEEEKKEKKEKKRKRDDDEDSKDSKKAKKEKKDKKEKKEKKEKKEKKEKKEKKEKKSKKEKKEKK
As to B4, the binding result in experiment [2] was “binds”.

B5: Mtr2 (protein, UniProt P34232 1-184)
chain: MNTNSNTMVMNDANQAQITATFTKKILAHLDDPDSNKLAQFVQLFNPNNCRIIFNATPFAQATVFLQMWQNQVVQTQHALTGVDYHAIPGSGTLICNVNCKVRFDESGRDKMGQDATVPIQPNNTGNRNRPNDMNKPRPLWGPYFGISLQLIIDDRIFRNDFNGVISGFNYNMVYKPEDSLLKI
As for B5, in experiment [3], the binding entry is listed as “binds”.

The record behind these values is article PMC10841842, “Single-molecule quantitation of RNA-binding protein occupancy and stoichiometry defines a role for Yra1 (Aly/REF) in nuclear mRNP organization” (Cell reports, 2023).
